The subject of the data set is rat anti-collagen IgG1 antibodies. Kind of data set: CIA model: rat anti-collagen IgG1 antibodies in serum at day 21. The following applies: day 21 serum. The format is in vivo, Lewis rat.
The mark [1] stands for this setting: reference group (Dexamethasone or GSK620), fold 2000, individual animals.
The mark [2] stands for this setting: 3 mg/kg, fold 1000, individual animals, 3 mg/kg.
Setting [3] is: 10 mg/kg, fold 1000, individual animals, 10 mg/kg.
Where [4] appears, read: 30 mg/kg, fold 1000, individual animals, 30 mg/kg.

Where “and” joins values, the source holds several entries; their conditions need not be identical. Equal entries are not always repeated.

Regarding `CNC(=O)c1cc(C(=O)NC2CC2)cn(Cc2ccccc2)c1=O` [GSK620], under setting [1], the “Average OD450 nm” value was 0.1059 and 0.1162 and 0.0510 and 0.0591 and 0.1383 and 0.0674 and 0.1068 and 0.1190; the “Calculated O.D.” value is 0.0014 and 0.0094; the “OD450 nm (first reading)” value was 0.1048 and 0.1158 and 0.0510 and 0.0597 and 0.1344 and 0.0652 and 0.1051 and 0.1186; the “OD450 nm (second reading)” value was 0.1070 and 0.1165 and 0.0510 and 0.0584 and 0.1422 and 0.0696 and 0.1085 and 0.1193.

In the case of `CNC(=O)c1[nH]c(C(=O)NC2CCC2)cc1O[C@@H](C)c1ccccc1` [Example 101, N^5-cyclobutyl-N^2-methyl-3-(1-phenylethoxy)-1H-pyrrole-2,5-dicarboxamide], under setting [2], the “Average OD450 nm” value was 0.1350 and 0.1190 and 0.0577 and 0.2351 and 0.1310 and 0.0800 and 0.0703 and 0.2312; the “Calculated O.D.” value is 0.0080; the “OD450 nm (first reading)” value was 0.1334 and 0.1187 and 0.0532 and 0.2278 and 0.1281 and 0.0789 and 0.0717 and 0.2381; the “OD450 nm (second reading)” value was 0.1366 and 0.1192 and 0.0621 and 0.2424 and 0.1339 and 0.0811 and 0.0689 and 0.2243. Also, under setting [3], the “Average OD450 nm” value was 0.4734 and 0.1603 and 0.2159 and 0.0570 and 0.1860 and 0.0967 and 0.0602 and 0.0572; the “Calculated O.D.” value was 0.0073 and 0.0075; the “OD450 nm (first reading)” value is 0.4650 and 0.1629 and 0.2259 and 0.0591 and 0.1978 and 0.0995 and 0.0617 and 0.0588; the “OD450 nm (second reading)” value was 0.4817 and 0.1576 and 0.2059 and 0.0548 and 0.1741 and 0.0939 and 0.0586 and 0.0555. In addition, under setting [4], the “Average OD450 nm” value was 0.0524 and 0.0503 and 0.0477 and 0.0657 and 0.1029 and 0.0732 and 0.0570 and 0.0752; the “Calculated O.D.” value is 0.0027 and 0.0006 and −0.0020 and 0.0074; the “OD450 nm (first reading)” value was 0.0504 and 0.0486 and 0.0474 and 0.0630 and 0.1069 and 0.0770 and 0.0563 and 0.0734; the “OD450 nm (second reading)” value is 0.0543 and 0.0519 and 0.0479 and 0.0684 and 0.0989 and 0.0693 and 0.0577 and 0.0769.

The values are drawn from patent US20260000642A1 (Tay Therapeutics Limited, priority 2022, published 2026).
